In patent publication US20150274751A1, “TREATMENT OF S[…] AN INHIBITOR OF CBP/CATENIN” (PRISM Pharma Co., Ltd., priority 2012, published 2015):
At least one compound was matched to its structure with a doubt left.

Tested on: bleomycin-induced dermal fibrosis
Assay: murine model of bleomycin-induced dermal fibrosis (histopathology scores)
Format: in vivo, female C3H/HeJ inbred mice (Mus musculus)
Conditions: DEX 1 mg/kg IP BID Days 14-41; Day 42; P<0.05
Source text: The objective of this study was to assess the effects of the test article Compound A, an alpha helix mimetic β-catenin inhibitor compound, in a murine model of bleomycin-induced dermal fibrosis. Compound A is 4-(((6S,9S,9aS)-1-(benzylcarbamoyl)-2,9-dimethyl-4,7-dioxo-8-(quinolin-8-ylmethyl)octahydro-1H-pyrazino[2,1-c][1,2,4]triazin-6-yl)methyl)phenyl dihydrogen phosphate. Negative and positive control articles were phosphate buffered saline (PBS) and dexamethasone (DEX, a known treatment for scleroderma), respectively.
The high-dose (0.5 mg/mL) dosing solution of test article was prepared by mixing 4 mL of test article (stock solution at 20 mg/mL) with 36 mL of PBS. […]
Mice were euthanized on Day 42, i.e., following six weeks of bleomycin injection and four weeks of test/control article treatment. A full gross necropsy was performed on each mouse, and any macroscopic abnormality was recorded. […]
Formalin-fixed skin and lung tissues from each mouse were processed for histopathology. […] Slides were evaluated for dermal fibrosis and dermal inflammation. […] Dermal fibrosis and inflammation were scored using the industry standard 5-point scoring system as follows: 0=no significant changes; 1=trace to minimal severity; 2=mild severity; 3=moderate severity; 4=marked severity. […]

## C[C@@H]1C[C@H]2[C@@H]3CCC4=CC(=O)C=C[C@]4(C)[C@@]3(F)[C@@H](O)C[C@]2(C)[C@@]1(O)C(=O)CO [DEX, dexamethasone, reference compound]
  dermal sclerosis scores vs vehicle-treated mice (FIG. 1): significant decrease
